Experimental findings from the supplement of paper PMC12819154, “High-throughput peptide-centric local stability assay extends protein–ligand identification to membrane proteins, tissues and bacteria” (Nature Structural & Molecular Biology, 2025) are described below.

The chains behind the UniProt entries cited, without tags or fusion partners. Where a name states a change or a piece, a line headed by the entry shows the natural chain unless it says otherwise.
UniProt Q9NVH0: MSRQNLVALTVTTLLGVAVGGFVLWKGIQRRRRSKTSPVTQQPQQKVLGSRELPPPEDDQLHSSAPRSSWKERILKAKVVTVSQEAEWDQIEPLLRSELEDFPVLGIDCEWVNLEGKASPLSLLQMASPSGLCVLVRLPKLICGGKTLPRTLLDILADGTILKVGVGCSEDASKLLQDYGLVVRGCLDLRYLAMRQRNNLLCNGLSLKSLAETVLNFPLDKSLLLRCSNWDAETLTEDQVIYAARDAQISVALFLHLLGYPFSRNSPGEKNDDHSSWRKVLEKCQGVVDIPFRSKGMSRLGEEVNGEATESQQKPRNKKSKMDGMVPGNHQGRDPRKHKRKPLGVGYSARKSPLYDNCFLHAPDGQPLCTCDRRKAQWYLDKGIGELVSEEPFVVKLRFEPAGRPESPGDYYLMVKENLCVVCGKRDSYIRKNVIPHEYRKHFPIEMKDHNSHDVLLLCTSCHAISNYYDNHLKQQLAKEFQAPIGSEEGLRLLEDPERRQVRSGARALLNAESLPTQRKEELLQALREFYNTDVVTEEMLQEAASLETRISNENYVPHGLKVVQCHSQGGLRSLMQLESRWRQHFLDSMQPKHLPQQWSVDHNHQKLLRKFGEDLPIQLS
UniProt Q9NUT2: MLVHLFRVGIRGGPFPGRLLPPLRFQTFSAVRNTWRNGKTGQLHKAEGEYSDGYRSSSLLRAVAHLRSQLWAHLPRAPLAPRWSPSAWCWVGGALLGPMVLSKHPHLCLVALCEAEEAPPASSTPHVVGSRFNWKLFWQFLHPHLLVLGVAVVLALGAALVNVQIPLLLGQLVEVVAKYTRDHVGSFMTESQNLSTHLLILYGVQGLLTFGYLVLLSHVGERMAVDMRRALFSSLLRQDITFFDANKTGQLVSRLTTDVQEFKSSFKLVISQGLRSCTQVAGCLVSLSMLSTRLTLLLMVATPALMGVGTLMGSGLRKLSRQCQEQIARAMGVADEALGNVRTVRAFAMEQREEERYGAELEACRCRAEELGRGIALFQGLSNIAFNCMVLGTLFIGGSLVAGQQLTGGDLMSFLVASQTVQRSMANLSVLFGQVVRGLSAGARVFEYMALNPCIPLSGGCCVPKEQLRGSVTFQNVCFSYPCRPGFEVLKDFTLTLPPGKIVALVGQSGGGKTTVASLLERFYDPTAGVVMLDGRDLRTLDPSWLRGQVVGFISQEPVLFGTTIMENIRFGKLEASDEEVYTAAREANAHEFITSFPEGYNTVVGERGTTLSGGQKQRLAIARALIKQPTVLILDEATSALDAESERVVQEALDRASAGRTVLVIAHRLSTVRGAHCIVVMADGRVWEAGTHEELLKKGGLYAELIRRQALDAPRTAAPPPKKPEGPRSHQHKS
UniProt Q9NUQ3: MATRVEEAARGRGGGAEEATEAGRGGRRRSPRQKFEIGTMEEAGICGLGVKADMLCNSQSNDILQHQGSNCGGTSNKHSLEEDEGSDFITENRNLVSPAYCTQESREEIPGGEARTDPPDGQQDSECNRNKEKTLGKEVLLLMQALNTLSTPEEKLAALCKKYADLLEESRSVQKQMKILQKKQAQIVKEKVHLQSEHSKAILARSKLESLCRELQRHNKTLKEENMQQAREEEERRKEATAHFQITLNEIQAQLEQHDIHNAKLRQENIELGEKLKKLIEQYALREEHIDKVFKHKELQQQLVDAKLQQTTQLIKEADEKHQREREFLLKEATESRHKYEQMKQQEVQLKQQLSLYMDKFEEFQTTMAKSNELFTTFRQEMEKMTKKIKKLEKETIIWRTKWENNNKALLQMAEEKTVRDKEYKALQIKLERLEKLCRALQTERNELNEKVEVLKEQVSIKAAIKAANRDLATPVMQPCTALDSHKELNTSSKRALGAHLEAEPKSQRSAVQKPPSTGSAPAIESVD
UniProt Q9NSC5: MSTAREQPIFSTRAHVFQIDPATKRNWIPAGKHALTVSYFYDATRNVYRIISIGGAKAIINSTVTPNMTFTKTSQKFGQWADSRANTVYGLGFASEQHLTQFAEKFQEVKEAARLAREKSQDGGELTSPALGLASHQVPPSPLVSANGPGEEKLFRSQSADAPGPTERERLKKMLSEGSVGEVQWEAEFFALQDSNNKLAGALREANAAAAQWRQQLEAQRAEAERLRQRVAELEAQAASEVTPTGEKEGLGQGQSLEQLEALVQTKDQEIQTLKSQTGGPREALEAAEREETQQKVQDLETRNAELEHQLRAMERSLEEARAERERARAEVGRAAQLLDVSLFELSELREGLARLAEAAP
UniProt Q9NRM7: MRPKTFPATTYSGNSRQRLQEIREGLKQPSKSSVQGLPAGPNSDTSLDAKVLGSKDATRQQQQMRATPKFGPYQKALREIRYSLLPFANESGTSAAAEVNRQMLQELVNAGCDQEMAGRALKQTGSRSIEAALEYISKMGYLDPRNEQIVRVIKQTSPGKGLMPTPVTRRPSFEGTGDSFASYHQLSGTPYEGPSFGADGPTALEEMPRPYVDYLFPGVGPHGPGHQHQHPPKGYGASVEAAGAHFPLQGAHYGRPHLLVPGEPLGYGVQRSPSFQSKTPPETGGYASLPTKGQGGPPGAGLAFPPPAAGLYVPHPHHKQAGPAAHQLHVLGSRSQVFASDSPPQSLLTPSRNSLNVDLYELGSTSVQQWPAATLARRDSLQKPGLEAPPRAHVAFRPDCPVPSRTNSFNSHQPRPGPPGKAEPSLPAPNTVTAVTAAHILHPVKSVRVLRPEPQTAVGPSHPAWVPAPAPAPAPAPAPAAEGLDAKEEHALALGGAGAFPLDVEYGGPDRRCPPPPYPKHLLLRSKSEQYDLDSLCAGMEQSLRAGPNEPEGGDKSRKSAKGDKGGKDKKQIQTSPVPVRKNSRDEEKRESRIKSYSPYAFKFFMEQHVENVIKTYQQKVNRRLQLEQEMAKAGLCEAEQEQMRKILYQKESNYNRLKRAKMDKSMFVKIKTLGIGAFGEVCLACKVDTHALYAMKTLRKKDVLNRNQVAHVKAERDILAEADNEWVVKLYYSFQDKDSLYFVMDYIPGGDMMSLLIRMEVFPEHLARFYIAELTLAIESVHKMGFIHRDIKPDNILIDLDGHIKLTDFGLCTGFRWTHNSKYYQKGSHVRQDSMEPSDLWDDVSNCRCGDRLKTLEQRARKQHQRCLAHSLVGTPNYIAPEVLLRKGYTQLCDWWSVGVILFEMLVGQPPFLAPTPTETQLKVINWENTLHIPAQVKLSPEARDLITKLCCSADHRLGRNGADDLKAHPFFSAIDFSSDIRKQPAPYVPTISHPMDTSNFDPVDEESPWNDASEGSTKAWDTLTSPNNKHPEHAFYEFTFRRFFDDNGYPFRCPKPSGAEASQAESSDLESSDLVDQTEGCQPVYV
UniProt Q9NSK0: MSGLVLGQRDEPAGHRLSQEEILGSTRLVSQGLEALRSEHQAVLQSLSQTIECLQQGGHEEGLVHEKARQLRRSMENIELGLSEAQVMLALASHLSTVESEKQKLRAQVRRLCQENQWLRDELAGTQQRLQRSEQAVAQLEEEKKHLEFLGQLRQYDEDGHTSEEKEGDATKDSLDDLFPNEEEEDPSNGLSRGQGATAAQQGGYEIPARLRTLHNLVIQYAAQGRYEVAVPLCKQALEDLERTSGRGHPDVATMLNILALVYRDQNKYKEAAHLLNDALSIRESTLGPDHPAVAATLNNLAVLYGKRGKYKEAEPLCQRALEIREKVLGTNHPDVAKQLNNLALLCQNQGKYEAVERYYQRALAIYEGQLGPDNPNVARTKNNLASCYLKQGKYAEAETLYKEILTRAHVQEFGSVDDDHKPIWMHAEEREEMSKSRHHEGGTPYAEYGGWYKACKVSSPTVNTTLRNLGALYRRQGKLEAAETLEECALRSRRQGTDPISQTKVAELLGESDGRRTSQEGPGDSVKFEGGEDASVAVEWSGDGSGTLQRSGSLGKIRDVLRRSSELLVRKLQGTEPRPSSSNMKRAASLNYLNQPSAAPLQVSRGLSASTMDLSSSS
UniProt Q9NV35: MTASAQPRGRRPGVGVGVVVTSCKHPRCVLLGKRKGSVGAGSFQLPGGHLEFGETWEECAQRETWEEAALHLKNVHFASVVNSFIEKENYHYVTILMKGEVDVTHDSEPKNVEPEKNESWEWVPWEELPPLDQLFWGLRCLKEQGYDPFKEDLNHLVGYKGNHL
UniProt Q9NRA8: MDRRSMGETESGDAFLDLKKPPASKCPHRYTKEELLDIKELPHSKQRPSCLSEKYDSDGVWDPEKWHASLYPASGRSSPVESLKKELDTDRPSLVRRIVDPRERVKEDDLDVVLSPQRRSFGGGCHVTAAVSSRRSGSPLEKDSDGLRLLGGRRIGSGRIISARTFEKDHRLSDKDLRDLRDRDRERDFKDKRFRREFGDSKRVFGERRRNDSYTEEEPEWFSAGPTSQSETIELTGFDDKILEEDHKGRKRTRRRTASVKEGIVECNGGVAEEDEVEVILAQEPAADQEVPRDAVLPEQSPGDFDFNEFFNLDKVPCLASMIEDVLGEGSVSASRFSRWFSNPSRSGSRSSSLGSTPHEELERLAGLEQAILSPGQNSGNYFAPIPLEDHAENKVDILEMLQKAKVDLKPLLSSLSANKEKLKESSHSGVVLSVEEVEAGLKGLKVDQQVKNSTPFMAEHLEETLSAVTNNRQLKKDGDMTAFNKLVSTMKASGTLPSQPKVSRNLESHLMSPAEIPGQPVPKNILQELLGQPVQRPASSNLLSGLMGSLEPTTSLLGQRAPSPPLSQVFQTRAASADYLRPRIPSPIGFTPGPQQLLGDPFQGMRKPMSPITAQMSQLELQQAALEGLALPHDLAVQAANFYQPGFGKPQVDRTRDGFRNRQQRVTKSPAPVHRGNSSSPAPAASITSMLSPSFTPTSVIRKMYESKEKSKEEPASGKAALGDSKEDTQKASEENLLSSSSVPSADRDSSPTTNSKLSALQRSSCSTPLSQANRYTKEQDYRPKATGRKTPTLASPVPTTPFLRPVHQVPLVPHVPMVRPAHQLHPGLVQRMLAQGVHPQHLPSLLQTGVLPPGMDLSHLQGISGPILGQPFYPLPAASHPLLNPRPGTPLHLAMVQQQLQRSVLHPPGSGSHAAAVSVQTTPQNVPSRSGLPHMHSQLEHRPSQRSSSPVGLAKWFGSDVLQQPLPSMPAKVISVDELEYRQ
UniProt Q9NQR1: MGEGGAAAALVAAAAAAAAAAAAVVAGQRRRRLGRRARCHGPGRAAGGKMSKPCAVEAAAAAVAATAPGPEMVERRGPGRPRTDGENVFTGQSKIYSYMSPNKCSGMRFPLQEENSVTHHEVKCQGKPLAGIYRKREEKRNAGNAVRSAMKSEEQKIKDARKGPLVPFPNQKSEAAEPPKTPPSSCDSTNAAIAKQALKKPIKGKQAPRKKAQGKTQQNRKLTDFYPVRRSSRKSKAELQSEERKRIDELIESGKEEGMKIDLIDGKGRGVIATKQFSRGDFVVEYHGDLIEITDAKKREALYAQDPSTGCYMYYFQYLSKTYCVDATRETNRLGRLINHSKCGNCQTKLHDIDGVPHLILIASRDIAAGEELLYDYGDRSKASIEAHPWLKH
UniProt Q9NS37: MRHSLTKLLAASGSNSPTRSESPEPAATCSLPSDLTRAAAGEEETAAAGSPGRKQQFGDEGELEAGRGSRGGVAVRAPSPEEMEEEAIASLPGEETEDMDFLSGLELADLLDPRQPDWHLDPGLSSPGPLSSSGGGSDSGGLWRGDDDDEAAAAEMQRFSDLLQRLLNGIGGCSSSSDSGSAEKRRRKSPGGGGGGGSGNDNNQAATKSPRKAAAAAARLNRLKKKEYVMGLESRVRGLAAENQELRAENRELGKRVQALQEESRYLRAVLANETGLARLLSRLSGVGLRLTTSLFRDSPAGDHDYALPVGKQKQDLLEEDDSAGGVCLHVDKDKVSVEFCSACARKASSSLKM
UniProt Q9NVR2, whole entry: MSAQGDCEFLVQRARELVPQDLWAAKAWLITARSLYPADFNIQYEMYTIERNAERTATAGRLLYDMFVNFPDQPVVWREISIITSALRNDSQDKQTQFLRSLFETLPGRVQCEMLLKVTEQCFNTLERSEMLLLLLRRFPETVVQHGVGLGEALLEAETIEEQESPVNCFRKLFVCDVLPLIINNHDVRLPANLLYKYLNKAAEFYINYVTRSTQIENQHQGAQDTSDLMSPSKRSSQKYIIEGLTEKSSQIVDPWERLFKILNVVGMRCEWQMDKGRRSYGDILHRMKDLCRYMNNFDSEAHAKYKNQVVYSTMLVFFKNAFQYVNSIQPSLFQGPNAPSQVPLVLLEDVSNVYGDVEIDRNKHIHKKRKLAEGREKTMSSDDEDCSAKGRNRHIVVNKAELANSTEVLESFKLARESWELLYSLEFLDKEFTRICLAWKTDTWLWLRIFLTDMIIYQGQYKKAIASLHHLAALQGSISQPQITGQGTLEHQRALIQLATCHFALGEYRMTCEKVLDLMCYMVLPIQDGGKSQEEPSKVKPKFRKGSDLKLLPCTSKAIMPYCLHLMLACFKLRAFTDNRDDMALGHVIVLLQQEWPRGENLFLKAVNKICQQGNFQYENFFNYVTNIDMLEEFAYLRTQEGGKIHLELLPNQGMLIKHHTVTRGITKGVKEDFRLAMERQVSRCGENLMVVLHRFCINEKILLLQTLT

This is one part of the list. Small differences around the control level are noise.

Compound in the test: Cc1nc(Nc2ncc(C(=O)Nc3c(C)cccc3Cl)s2)cc(N2CCN(CCO)CC2)n1 [dasatinib]
Nature of the test: log2 fold change of tryptic peptide abundance, ligand vs vehicle (limited proteolysis) (log2 ratio); higher = more trypsin-susceptible (destabilized). Conditions: ligand concentration: 5 uM; sample: K562 cleared lysate.
Regarding “FANCI (peptide sequence: GKVAGALLR, peptide start residue: 40) (UniProt Q9NVI1)”, the log2 fold change is -0.154.

In the case of “PALMD (peptide sequence: ALYAMEIK, peptide start residue: 172) (UniProt Q9NP74)”, the log2 fold change came to 0.364. The figure for “UniProt Q9NVH0 (peptide sequence: TSPVTQQPQQK, peptide start residue: 36)” is -0.288; for “ABCB8 (peptide sequence: TVLVIAHR, peptide start residue: 684) (UniProt Q9NUT2)” it is 0.0325. The figure for “LZTFL1 (peptide sequence: VQEQLHMAEKELEKK, peptide start residue: 250) (UniProt Q9NQ48)” is -0.175; for “DCP1A (peptide sequence: HLTVEELFGTSLPK, peptide start residue: 216) (UniProt Q9NPI6)” it is 0.0784. The figure for “UniProt Q9NUQ3 (peptide sequence: ALQTERNELNEKVEVLK, peptide start residue: 440)” is -0.617; for “MTPAP (peptide sequence: TVLIHCPEKISENK, peptide start residue: 77) (UniProt Q9NVV4)” it is 0.525. For “XAGE1A (peptide sequence: EEHCKMPEAGEEQPQV, peptide start residue: 66) (UniProt Q9HD64)”, the log2 fold change is -0.272. The figure for “KLHL11 (peptide sequence: RVPSSQIEC, peptide start residue: 700) (UniProt Q9NVR0)” is 0.42; for “ANLN (peptide sequence: FKETERPSIK, peptide start residue: 681) (UniProt Q9NQW6)” it is -0.825; for “HOMER3 (peptide sequence: SQSADAPGPTER, peptide start residue: 157) (UniProt Q9NSC5)” it is -0.239. In the case of “LATS2 (peptide sequence: LTDFGLCTGFR, peptide start residue: 844) (UniProt Q9NRM7)” it was 0.414; in that of “BRD7 (peptide sequence: DLQCHAPVR, peptide start residue: 104) (UniProt Q9NPI1)”, 1.19.

Regarding “KLC4 (peptide sequence: KLQGTEPRPSSSNMK, peptide start residue: 572) (UniProt Q9NSK0)”, the log2 fold change worked out at 0.125.

For “NUDT15 (peptide sequence: EQGYDPFKEDLNHLVGYK, peptide start residue: 143) (UniProt Q9NV35)”, the log2 fold change was -0.15. The figure for “PHPT1 (peptide sequence: WAEYHADIYDK, peptide start residue: 49) (UniProt Q9NRX4)” is 0.384; for “UniProt Q9NUP9 (peptide sequence: VLQSEFCNAVR, peptide start residue: 41)” it is 0.0453; for “SACM1L (peptide sequence: SNCMDCLDR, peptide start residue: 387) (UniProt Q9NTJ5)” it is 0.502. In the case of “EIF4ENIF1 (peptide sequence: AKVDLKPLLSSLSANK, peptide start residue: 405) (UniProt Q9NRA8)” it was -0.389.

On to “KMT5A (peptide sequence: TDGENVFTGQSK, peptide start residue: 83) (UniProt Q9NQR1)”, for which the log2 fold change turned out to be 0.205. The figure for “CHD8 (peptide sequence: SRPTPQDYEMR, peptide start residue: 2034) (UniProt Q9HCK8)” is -0.251. In the case of “UniProt Q9NS37 (peptide sequence: FSDLLQR, peptide start residue: 159)” it was 0.334.

In the case of “INTS10 (peptide sequence: EKTMSSDDEDCSAKGR, peptide start residue: 377) (UniProt Q9NVR2)”, the log2 fold change is -0.757. In the case of “FARSB (peptide sequence: DLLFQALGR, peptide start residue: 9) (UniProt Q9NSD9)” it was -0.111; in that of “RAB18 (peptide sequence: NDIVNMLVGNK, peptide start residue: 113) (UniProt Q9NP72)”, -0.456; in that of “UniProt Q9NSQ0 (peptide sequence: MEHLAQLR, peptide start residue: 251)”, -0.0547.
